US7700657B2, “Vitamin D analogs” (Galderma Research & Development, priority 2001, dated 2010)
At least one compound was matched to its structure with a doubt left.

Test system: 24-hydroxylase
Experiment: In vivo induction of 24-hydroxylase mRNA in SKH mice after single topical application
Details: in words
From the text: The agonist activity on vitamin D receptors of the compounds of the invention can be likewise evaluated “in vivo” by induction of 24-hydroxylase in SKH mice. (Kang et. al., Journal of Investigative Dermatology, 1997, 108(4), 513-518). The test protocol used as well as the results obtained with the compounds according to the invention are described in example 10 of the present application. 1]:
Consequently, the agonist activity on receptors of vitamin D of the compounds of the invention can be evaluated “in vivo” by induction of 24-hydroxylase in SKH mice.
The method used is the following: […] mice receive a single topical application of a compound to be tested in solution in ethanol at increasing concentrations. A volume of 50 μl of the product to be tested or of the vehicle alone is applied on the back of the mice with the aid of a pipette. […]
8 hours after topical application, the mice are euthanized, the treated skin is removed and the epidermidis is separated from the dermis. The quantification of the MRNA of the 24-Hydroxylase is carried out by semiquantitative PCR. The results are standardized with respect to the expression of the mRNA of GAPDH and the values for the different concentrations of calcitriol tested and, for the different compounds of the invention tested, are expressed as an induction factor with respect to calcitriol.

## CC/C(=C\C=C\C(O)(C(F)(F)F)C(F)(F)F)c1cccc(CCc2ccc(CO)c(CO)c2)c1 [Example 5, (3E,5E)-6-{3-[2-(3,4-Bis-hydroxymethylphenyl)ethyl]-phenyl}-1,1,1-trifluoro-2-trifluoromethylocta-3,5-dien-2-ol]
  activity (24-hydroxylase induction) compared with calcitriol: very superior
